Here are results for two molecules from doi:10.1101/2025.03.31.25324995.

Protein sequences, listed by entry. Tags and fused reporters are not part of them.
UniProt P06733: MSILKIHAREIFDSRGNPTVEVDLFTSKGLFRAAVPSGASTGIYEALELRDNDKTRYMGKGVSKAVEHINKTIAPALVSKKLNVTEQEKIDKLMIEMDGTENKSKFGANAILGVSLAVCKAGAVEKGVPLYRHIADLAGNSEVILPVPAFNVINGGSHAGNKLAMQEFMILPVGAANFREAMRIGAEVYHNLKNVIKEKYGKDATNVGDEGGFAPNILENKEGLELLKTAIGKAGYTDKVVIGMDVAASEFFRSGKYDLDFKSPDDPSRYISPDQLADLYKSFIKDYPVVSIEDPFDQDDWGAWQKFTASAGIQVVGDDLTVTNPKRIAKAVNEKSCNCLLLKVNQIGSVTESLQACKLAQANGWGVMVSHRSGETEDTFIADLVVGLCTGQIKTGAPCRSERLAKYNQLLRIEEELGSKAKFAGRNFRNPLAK
UniProt Q7Z6E9: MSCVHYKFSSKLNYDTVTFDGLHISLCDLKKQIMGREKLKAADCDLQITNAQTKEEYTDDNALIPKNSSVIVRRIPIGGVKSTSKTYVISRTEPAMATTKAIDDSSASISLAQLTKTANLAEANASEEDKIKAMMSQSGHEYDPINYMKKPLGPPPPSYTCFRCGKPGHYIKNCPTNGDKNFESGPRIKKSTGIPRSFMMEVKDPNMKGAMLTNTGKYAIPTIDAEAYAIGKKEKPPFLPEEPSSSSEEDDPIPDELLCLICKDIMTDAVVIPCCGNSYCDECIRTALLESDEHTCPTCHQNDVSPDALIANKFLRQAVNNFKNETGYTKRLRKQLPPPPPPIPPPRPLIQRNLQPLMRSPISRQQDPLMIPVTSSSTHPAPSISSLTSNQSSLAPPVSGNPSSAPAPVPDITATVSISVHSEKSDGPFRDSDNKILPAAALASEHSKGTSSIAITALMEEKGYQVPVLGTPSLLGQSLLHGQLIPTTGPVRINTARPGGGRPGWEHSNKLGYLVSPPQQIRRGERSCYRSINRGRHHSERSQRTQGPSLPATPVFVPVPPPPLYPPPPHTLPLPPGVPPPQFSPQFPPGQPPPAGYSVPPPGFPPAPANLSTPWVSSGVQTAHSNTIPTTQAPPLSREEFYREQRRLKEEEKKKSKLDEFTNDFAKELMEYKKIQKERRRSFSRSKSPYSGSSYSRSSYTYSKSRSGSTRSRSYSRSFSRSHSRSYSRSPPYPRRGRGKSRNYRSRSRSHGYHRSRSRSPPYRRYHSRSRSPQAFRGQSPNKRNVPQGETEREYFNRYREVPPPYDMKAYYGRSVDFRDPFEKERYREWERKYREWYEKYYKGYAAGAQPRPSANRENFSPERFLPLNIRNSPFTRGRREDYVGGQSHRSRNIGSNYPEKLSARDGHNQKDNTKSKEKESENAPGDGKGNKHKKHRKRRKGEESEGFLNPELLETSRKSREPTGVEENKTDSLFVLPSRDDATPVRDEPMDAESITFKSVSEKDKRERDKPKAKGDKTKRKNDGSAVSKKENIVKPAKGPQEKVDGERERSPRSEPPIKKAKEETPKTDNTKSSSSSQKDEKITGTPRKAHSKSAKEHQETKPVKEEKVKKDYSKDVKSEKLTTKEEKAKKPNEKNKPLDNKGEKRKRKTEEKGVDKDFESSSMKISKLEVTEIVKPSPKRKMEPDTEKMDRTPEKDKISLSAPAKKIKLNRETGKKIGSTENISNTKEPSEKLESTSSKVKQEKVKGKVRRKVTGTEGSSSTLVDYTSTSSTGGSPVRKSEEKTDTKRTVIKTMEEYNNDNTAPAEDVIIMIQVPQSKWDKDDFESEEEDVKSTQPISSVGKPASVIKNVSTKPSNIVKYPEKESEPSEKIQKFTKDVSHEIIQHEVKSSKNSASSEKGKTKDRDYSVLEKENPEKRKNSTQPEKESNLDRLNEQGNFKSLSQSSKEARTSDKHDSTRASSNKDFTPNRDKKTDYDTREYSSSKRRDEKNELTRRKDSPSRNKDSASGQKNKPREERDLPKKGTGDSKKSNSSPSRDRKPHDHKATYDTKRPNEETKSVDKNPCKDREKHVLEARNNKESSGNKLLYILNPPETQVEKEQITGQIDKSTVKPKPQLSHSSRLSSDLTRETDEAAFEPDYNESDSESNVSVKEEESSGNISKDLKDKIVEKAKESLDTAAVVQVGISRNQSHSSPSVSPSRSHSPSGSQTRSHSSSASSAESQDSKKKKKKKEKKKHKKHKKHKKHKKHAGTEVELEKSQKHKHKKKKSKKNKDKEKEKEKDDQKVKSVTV

These are yes or no findings as the source states them, for the method shown. Binding seen in cells or lysates may run through a third protein. Here binding means that the protein was enriched with, or labelled near, the bait; the list need not be complete.

The target in the test is ENO1 (alpha-enolase), endogenous in AC16 cardiomyocytes (human (endogenous in AC16)) (UniProt P06733). Kind of test: affinity purification with mass spectrometry.

As to “RBBP6, endogenous in AC16 nuclear fraction (from UniProt Q7Z6E9 1-1792)”, the binding entry is recorded as “binds”.

B1: NACC1, endogenous in AC16 nuclear fraction (protein, UniProt Q96RE7 1-527)
chain: MAQTLQMEIPNFGNSILECLNEQRLQGLYCDVSVVVKGHAFKAHRAVLAASSSYFRDLFNNSRSAVVELPAAVQPQSFQQILSFCYTGRLSMNVGDQFLLMYTAGFLQIQEIMEKGTEFFLKVSSPSCDSQGLHAEEAPSSEPQSPVAQTSGWPACSTPLPLVSRVKTEQQESDSVQCMPVAKRLWDSGQKEAGGGGNGSRKMAKFSTPDLAANRPHQPPPPQQAPVVAAAQPAVAAGAGQPAGGVAAAGGVVSGPSTSERTSPGTSSAYTSDSPGSYHNEEDEEEDGGEEGMDEQYRQICNMYTMYSMMNVGQTAEKVEALPEQVAPESRNRIRVRQDLASLPAELINQIGNRCHPKLYDEGDPSEKLELVTGTNVYITRAQLMNCHVSAGTRHKVLLRRLLASFFDRNTLANSCGTGIRSSTNDPRRKPLDSRVLHAVKYYCQNFAPNFKESEMNAIAADMCTNARRVVRKSWMPKVKVLKAEDDAYTTFISETGKIEPDMMGVEHGFETASHEGEAGPSAEALQ
With B1, the binding result is “binds”.
